Laboratory results taken from patent US20100151556A1 (CELLECTIS, published 2010).
Residue numbers refer to the chain shown, from its start. No constants are given. Whether binding was seen depends on the method and setting. Some binding calls cover weakened binding; strength is not graded here.

Target: T1, M3 I-CreI mutant (RAG1.10.3 cutter) (Chlamydomonas reinhardtii) (UniProt P05725)
T1 sequence: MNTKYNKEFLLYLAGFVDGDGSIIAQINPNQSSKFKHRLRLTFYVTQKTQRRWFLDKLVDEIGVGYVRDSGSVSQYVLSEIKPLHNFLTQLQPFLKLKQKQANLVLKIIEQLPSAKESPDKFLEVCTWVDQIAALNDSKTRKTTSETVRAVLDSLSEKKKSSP
Assay: analytical ultracentrifugation and gel filtration of co-expressed, double-tagged (His/Strep) purified heterodimers

B1: M2 I-CreI mutant (RAG1.10.2 cutter) (enzyme, not shown: small tags and cut ends)
chain: T1 sequence with N28K, N30R, S33N, R38Q, R40S, Y44A, R68Y, Q75D, V77R
binding: binds
